In one data set the test system is eIF4G-MC. The data set can be described thus: fluorescence anisotropy. The conditions noted are these: affinity comparable to eIF4H, Kd in figure only; 20 mM HEPES/KOH pH 7.5, 100 mM KCl, 1 mM TCEP, 1% DMSO, 2 mM AMPPNP/MgCl2, 25 C, 60 min; recombinant protein; residues 674-1600; protein details: N-terminal 6xHis-SUMO, cleaved; label: FAM or 5' Dy780.
The next data set concerns the target eIF4H (UniProt Q15056). The data set can be described thus: fluorescence anisotropy. The following applies: affinity comparable to eIF4G-MC, Kd in figure only; 20 mM HEPES/KOH pH 7.5, 100 mM KCl, 1 mM TCEP, 1% DMSO, 2 mM AMPPNP/MgCl2, 25 C, 60 min; recombinant …; protein details: N-terminal 6xHis-SUMO, cleaved; label: FAM or 5' Dy780. A general note: In fluorescence polarisation assays a small probe gives low polarisation when free and higher when bound to something large.

Amino acid sequences for entries named in this document (tags omitted). A change or cut given only in a name is not applied to a line headed by its entry.
UniProt P60842, whole entry: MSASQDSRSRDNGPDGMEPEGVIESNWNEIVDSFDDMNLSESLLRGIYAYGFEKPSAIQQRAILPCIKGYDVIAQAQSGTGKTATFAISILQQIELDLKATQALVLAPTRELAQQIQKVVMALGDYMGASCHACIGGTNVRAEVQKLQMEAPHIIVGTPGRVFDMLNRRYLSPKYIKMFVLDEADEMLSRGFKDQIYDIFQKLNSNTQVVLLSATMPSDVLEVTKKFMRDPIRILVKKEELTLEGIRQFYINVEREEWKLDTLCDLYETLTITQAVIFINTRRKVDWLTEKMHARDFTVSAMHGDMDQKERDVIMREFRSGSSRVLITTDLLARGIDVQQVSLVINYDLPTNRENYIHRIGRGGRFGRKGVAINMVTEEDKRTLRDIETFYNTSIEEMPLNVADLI

The target of another data set is eIF4A1 (human) (UniProt P60842). As to the kind of experiment: EMSA. The following applies: AMPPNP/MgCl2, 50 uM hippuristanol; 20 mM HEPES/KOH pH 7.5, 100 mM KCl, 1 mM TCEP, 1% DMSO, 2 mM AMPPNP/MgCl2, 25 C, 60 min; EMSA gels 6-7% acrylamide-TB, 0.5x TB; recombinant protein; protein details: N-terminal 6xHis-SUMO, cleaved; label: FAM or 5' Dy780. In general terms: In EMSA bound probe runs differently from free probe, usually more slowly.

This is an account of results in publication PMC9976904.

Construct, isoform or probe ends are uncertain for at least one entry. For part of these data: A weaker result is weaker than the reference pair of the same experiment. For part of these data: At least one verdict rests on a figure or table, not on a statement of the authors.

On to AGAGAGAGAGAGAGAGAGAG [AG-RNA (20 nt)], for which the binding result in the data set with eIF4G-MC and with eIF4H was “binds” throughout.

As to CAACAACAACAACAACAACA [CAA-RNA (20 nt)], in the data set with eIF4A1 (human), the binding result was “binds more weakly”.
